Results are given in words; binding and its absence hold for the method and conditions named. In cells and extracts the contact can be indirect. A yes stands for co-enrichment or nearness to the bait. Other partners may have been found. Where a sequence is shown, tags or fusion partners need not be part of it.
Target: T1, FLAG-tagged version of the 80 C-terminal aa of Atg43 (aa 165-244) (S. pombe) (UniProt O13709)
T1 sequence: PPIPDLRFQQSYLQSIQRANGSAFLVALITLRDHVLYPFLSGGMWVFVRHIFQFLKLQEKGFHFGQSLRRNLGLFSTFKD
Experiment: affinity purification with mass spectrometry

binding: binds
B1: Mim2 (endogenous) (protein, UniProt G2TRP0 1-72)
chain: MAEVLDLEIDPISDGEDDTYSSELDDDLKDSIEQLERVLCLVVFPLLGKFLGRKFAFHAWARWLERRRLVSN
